This is a selection; strong and weak results do not stand in their true shares. The calls were merged from several studies; some rest on single wells. Some of the results follow.

In the first experiment the test system is T1, OR7D4.
T1 sequence (whole entry): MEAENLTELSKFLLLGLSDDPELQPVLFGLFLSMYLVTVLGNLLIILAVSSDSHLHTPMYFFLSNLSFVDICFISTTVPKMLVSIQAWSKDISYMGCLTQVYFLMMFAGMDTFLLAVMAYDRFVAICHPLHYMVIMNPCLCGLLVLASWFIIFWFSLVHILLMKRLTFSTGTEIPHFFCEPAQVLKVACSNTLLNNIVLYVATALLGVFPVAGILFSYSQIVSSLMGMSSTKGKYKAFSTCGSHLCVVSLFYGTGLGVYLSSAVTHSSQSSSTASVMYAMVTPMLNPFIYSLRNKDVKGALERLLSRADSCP
To be noted: stereoisomer not certain. The essentials: (§1)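 Each entry records the cell line, G-protein, co-transfected protein and tags used. Methods varied with the source, often transient luciferase assays in mammalian cell lines. A receptor–molecule pair is called responsive (active) if the original authors judged its signal statistically different from baseline and non-responsive (inactive) otherwise.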
For the molecule `CCCCCCCCCC=O`, the “odorant receptor agonist call” value was “inactive”.
Consider `c1cnccn1`, for which the “odorant receptor agonist call” value is “inactive”.
Still for that read-out and setting: then `CC1=CCC(C(C)(C)O)CC1` (centres undefined), with “inactive”; and `CCCCO`, with “inactive”.
Regarding `O=C1CCCCCCCCCCCC(=O)OCCO1`, the “odorant receptor agonist call” value was “inactive”.
Same read-out and setting: then `CC(C)CC(=O)O`, with “inactive”.
Same read-out and setting: then `O=C1CCCCCCCCCCCCCCO1`, with “inactive”; and `CCCCCCOC(=O)CCC`, with “inactive”; and `O=CCc1ccccc1`, with “inactive”.
The same measure, in the same setting: next, `CC(C)C=O`: “inactive”; `CCC1(O)C2(C)CCC(C2)C1(C)C` (centres undefined): “inactive”; `CC(C)=CCCC(C)=CC=O`: “inactive”.
In the case of `CC(=O)OCC=C(C)CCC=C(C)C`, the “odorant receptor agonist call” value was “inactive”.
`CC=Cc1ccc(O)c(OC)c1`: the “odorant receptor agonist call” value was “inactive”.
Regarding `CCCCCCCOC(C)=O`, the “odorant receptor agonist call” value is “inactive”.
The same measure, in the same setting: then `C=CCc1ccc(OC(C)=O)c(OC)c1`, with “inactive”; and `COc1cc(C=O)ccc1O`, with “inactive”; and `COc1ccccc1O`, with “inactive”.
Regarding `COc1cc(C)ccc1O`, the “odorant receptor agonist call” value was “inactive”.
With `CCCCCCCCCCC=O`, the “odorant receptor agonist call” value is “inactive”.
Same read-out and setting: then `CC(=O)OC1CC2CCC1(C)C2(C)C` (centres undefined), with “inactive”.

The target in a further experiment is T2, OR7G1 (Homo sapiens) (UniProt Q8NGA0).
T2 sequence (whole entry): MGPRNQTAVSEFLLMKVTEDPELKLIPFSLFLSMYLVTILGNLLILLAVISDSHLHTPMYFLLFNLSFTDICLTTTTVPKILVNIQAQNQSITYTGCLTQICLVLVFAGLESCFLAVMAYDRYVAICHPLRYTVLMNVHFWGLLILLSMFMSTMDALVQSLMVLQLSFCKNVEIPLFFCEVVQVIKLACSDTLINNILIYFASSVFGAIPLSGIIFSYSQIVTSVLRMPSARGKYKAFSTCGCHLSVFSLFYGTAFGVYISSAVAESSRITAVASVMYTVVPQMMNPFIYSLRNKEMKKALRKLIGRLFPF
To be noted: stereoisomer not certain. An outline of the steps: as §1
`CCCCCCCCCC=O`: the “odorant receptor agonist call” value is “inactive”.
Turning to `CCCCCOC(C)=O`, the “odorant receptor agonist call” value is “inactive”.
On the same count and under the same terms, next, `c1cnccn1`: “inactive”.
Same read-out and setting: next, `CC1=CCC(C(C)(C)O)CC1` (centres undefined): “inactive”; `CCCCO`: “inactive”; `O=C1CCCCCCCCCCCC(=O)OCCO1`: “inactive”.
Same read-out and setting: next, `CC(C)CC(=O)O`: “inactive”; `O=C1CCCCCCCCCCCCCCO1`: “inactive”; `CCCCCCOC(=O)CCC`: “inactive”.
Consider `O=CCc1ccccc1`, for which the “odorant receptor agonist call” value was “inactive”.
As to `CC(C)C=O`, the “odorant receptor agonist call” value was “inactive”.
Same read-out and setting: then `CCC1(O)C2(C)CCC(C2)C1(C)C` (centres undefined), with “inactive”.
Same read-out and setting: then `CC(=O)c1ccccc1`, with “inactive”; and `CC(C)=CCCC(C)=CC=O`, with “inactive”; and `CC(=O)OCC=C(C)CCC=C(C)C`, with “inactive”.
Still for that read-out and setting: next, `CC=Cc1ccc(O)c(OC)c1`: “inactive”.
As for `CCCCCCCOC(C)=O`, the “odorant receptor agonist call” value is “inactive”.
Regarding `CC1=NC(C)SC1C` (centres undefined), the “odorant receptor agonist call” value is “inactive”.
Same read-out and setting: next, `C=CCc1ccc(OC(C)=O)c(OC)c1`: “inactive”; `COc1cc(C=O)ccc1O`: “inactive”.
On the same count and under the same terms, then `CCCCCC(C)=O`, with “inactive”.
With `COc1ccccc1O`, the “odorant receptor agonist call” value was “inactive”.
Regarding `COc1cc(C)ccc1O`, the “odorant receptor agonist call” value was “inactive”.
For `CCCCCCCCCCC=O`, the “odorant receptor agonist call” value is “inactive”.
Same read-out and setting: then `O=C1CCCCC1`, with “inactive”; and `CC(=O)OC1CC2CCC1(C)C2(C)C` (centres undefined), with “inactive”.
Same read-out and setting: next, `COC(=O)c1ccccc1`: “inactive”.

For the next experiment, the target named is T3, OR7G2 (Homo sapiens) (UniProt Q8NG99).
T3 sequence (whole entry): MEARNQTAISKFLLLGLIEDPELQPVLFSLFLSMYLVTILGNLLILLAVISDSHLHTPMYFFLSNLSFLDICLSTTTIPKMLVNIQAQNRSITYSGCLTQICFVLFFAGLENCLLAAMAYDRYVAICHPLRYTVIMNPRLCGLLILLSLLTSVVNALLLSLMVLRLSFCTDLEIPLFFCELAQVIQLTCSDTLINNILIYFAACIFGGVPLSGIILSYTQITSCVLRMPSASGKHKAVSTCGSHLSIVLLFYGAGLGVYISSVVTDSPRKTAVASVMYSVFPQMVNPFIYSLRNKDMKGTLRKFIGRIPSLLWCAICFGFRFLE
To be noted: stereoisomer not certain. An outline of the steps:
as §1
As for `CCCCCCCCCC=O`, the “odorant receptor agonist call” value was “inactive”.
Still for that read-out and setting: next, `CCCCCOC(C)=O`: “inactive”; `c1cnccn1`: “inactive”.
As for `CC1=CCC(C(C)(C)O)CC1` (centres undefined), the “odorant receptor agonist call” value was “inactive”.
In the case of `CCCCO`, the “odorant receptor agonist call” value was “inactive”.
Consider `O=C1CCCCCCCCCCCC(=O)OCCO1`, for which the “odorant receptor agonist call” value is “inactive”.
The same measure, in the same setting: next, `CC(C)CC(=O)O`: “inactive”; `O=C1CCCCCCCCCCCCCCO1`: “inactive”; `CCCCCCOC(=O)CCC`: “inactive”.
Regarding `O=CCc1ccccc1`, the “odorant receptor agonist call” value is “inactive”.
The same measure, in the same setting: next, `CC(C)C=O`: “inactive”; `CCC1(O)C2(C)CCC(C2)C1(C)C` (centres undefined): “inactive”; `CC(=O)c1ccccc1`: “inactive”.
As to `CC(C)=CCCC(C)=CC=O`, the “odorant receptor agonist call” value is “inactive”.
Take `CC(=O)OCC=C(C)CCC=C(C)C`: the “odorant receptor agonist call” value was “inactive”.
For `CC=Cc1ccc(O)c(OC)c1`, the “odorant receptor agonist call” value was “inactive”.
